These are yes or no findings as the source states them, for the method shown. In cells and extracts the contact can be indirect. Some results given as binding are weak or reduced against the parent protein; the word gives no strength. Where a sequence is shown, tags or fusion partners need not be part of it. Each block holds one molecule with its values, some of them ahead of it.
Experiments:
[1] = biological target: T1, FLAG-Rab27A(T23N) (UniProt Q9ERI2); assay: co-IP; HEK293T post-nuclear supernatant centrifuged at 100,000 x g for 30 min into membrane and soluble fractions; immunoprecipitation buffer added; anti-FLAG precipitation; western blot
T1 sequence: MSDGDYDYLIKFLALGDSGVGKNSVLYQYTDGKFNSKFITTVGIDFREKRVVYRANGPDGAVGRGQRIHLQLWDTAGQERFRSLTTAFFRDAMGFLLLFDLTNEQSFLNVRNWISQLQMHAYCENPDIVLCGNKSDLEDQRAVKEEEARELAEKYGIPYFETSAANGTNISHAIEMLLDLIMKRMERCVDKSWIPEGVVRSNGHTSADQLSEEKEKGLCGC

By UniProt entry, the sequences of proteins in these tests, tags left out.
UniProt P15920: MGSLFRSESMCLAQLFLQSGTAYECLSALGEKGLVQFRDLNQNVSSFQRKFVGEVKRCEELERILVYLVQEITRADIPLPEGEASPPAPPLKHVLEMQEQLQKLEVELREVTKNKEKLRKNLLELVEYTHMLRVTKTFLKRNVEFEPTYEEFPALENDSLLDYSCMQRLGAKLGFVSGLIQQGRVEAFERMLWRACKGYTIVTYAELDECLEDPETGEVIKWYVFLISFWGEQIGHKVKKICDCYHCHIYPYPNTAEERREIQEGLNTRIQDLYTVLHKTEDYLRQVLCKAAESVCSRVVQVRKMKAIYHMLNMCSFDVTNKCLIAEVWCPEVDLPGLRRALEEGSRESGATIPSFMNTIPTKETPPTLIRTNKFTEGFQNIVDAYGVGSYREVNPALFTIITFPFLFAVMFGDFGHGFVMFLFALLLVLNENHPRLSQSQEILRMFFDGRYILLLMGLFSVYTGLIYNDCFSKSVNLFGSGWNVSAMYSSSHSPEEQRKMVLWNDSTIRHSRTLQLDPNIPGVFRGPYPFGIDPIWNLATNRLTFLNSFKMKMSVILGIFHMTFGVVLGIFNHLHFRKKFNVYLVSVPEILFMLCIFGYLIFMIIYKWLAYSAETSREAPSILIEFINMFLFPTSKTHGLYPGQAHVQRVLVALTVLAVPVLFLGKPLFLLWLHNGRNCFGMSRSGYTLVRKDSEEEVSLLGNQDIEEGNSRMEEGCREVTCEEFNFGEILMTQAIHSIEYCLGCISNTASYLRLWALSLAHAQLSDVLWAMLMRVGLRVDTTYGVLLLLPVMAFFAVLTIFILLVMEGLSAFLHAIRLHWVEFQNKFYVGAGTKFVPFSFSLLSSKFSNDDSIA

[2] = biological target: T1, FLAG-Rab27A(T23N); assay: co-IP; co-expression in HEK293T; lysate in 1% Triton X-100, 10% glycerol, 50 mM Tris-HCl pH 7.4, 150 mM NaCl, 1 mM DTT, 1 mM EDTA; anti-FLAG M2-agarose, 2 h at 4 °C; western blot
[3] = biological target: FLAG-tagged a2 subunit isoform of V-ATPase (UniProt P15920); assay: as above

- binding [1]: binds
- binding [2]: binds
Molecule: V5-tagged a2 subunit isoform of V-ATPase (from UniProt P15920 1-856)

- binding [3]: binds
B1: V5-fused Rab27A T23N (GDP-bound form) (protein, UniProt Q9ERI2 1-221)
chain: T1 sequence

- binding [3]: binds
B2: V5-EPI64, the Rab27A GTPase-activating protein (GAP) (protein, UniProt P58802 1-500)
chain: MAKSSRENGPREPAAGGSLSGTRESLAQGPDAATADELSSLGSDSEANGFAERRIDKFGFIVGSQGAEGALEEVPLEVLRQRESKWLDMLNNWDKWMAKKHKKIRLRCQKGIPPSLRGRAWQYLSGGKVKLQQNPGKFDELDMSPGDPKWLDVIERDLHRQFPFHEMFVSRGGHGQQDLFRVLKAYTLYRPEEGYCQAQAPIAAVLLMHMPAEQAFWCLVQVCEKYLPGYYSEKLEAIQLDGEILFSLLQKVSPVAHKHLSRQKIDPLLYMTEWFMCAFARTLPWSSVLRVWDMFFCEGVKIIFRVGLVLLKHALGSPEKLKACQGQYETIEQLRSLSPKIMQEAFLVQEVIELPVTERQIEREHLIQLRRWQETRGELECRSLPRMHGAKAILDAEPGPRPALQPSPSIRLPPDAALLSSKAKPHKQAQKEQKRTKTSAQLDKSPGLSQATVVTAAGDACPPQGVSPKDPVPQDPTPQNLACHHSQESLTSQESEDTYL

— article PMC12125285
